For at least one entry, the source does not settle the construct or the ends of the probe. For some assays here: Weaker means in comparison with the reference protein, sequence or condition of that experiment. For some assays here: Where a protein sequence is shown, tags need not be part of it. For some assays here: At least one verdict was read from the data and is not stated in words by the source.
What was measured:
[1] = biological target: T1, ETV6 ETS DNA-binding domain (EDBD) (UniProt P41212); experiment: NMR; settings: [1H,15N]-HSQC chemical shift mapping, DNA described as consensus DNA site; recombinant protein; residues 334-452; protein details: C-terminal His6
T1 sequence (looked up): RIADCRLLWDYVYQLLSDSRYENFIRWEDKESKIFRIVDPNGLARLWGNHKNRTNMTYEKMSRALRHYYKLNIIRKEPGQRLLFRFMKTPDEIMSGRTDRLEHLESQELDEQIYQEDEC

[2] = biological target: T1, ETV6 ETS DNA-binding domain (EDBD); experiment: SPR; settings: immobilized EDBD (CM5), DNA titrated, single-cycle kinetics, no Kd given; SPR: 25 mM HEPES pH 7.5, 100 mM NaCl, 1 mM EDTA, 1 mM beta-mercaptoethanol; recombinant protein; residues 334-452; protein details: C-terminal His6
[3] = biological target: T1, ETV6 ETS DNA-binding domain (EDBD); experiment: HTRF; settings: 40 nM protein, 62.5 nM biotinylated oligo; recombinant protein; residues 334-452; protein details: C-terminal His6
[4] = biological target: T2, ERG full-length (UniProt P11308); experiment: pull-down; settings: Pull-down: 4 C, 30 min, 1 ug poly(dI/dC), 4 mM spermidine, wash in binding buffer 50 mM KCl, 10 mM HEPES pH 7.6, 5 mM MgCl2, 10 mM Tris pH 8, 0.05 mM EDTA, protein translated in vitro, residues 1-479, protein details: FLAG
T2 sequence (looked up): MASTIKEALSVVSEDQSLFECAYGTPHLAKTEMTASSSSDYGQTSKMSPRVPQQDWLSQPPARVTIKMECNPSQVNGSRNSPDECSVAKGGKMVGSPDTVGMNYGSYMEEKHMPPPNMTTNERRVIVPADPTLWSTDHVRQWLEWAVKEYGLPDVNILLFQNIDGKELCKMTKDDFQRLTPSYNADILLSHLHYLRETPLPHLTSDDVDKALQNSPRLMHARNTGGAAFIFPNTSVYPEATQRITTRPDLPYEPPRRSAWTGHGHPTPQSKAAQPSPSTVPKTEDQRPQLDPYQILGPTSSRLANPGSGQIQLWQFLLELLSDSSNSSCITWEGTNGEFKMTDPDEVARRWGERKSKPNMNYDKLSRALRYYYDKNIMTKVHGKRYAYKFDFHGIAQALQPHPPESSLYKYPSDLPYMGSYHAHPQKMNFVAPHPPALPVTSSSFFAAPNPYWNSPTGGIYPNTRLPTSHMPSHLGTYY

[5] = biological target: T3, ETV6 full-length (UniProt P41212); experiment: pull-down; settings: Pull-down: 4 C, 30 min, 1 ug poly(dI/dC), 4 mM spermidine, wash in binding buffer 50 mM KCl, 10 mM HEPES pH 7.6, 5 mM MgCl2, 10 mM Tris pH 8, 0.05 mM EDTA, protein translated in vitro, residues 1-452, protein details: FLAG
T3 sequence (looked up): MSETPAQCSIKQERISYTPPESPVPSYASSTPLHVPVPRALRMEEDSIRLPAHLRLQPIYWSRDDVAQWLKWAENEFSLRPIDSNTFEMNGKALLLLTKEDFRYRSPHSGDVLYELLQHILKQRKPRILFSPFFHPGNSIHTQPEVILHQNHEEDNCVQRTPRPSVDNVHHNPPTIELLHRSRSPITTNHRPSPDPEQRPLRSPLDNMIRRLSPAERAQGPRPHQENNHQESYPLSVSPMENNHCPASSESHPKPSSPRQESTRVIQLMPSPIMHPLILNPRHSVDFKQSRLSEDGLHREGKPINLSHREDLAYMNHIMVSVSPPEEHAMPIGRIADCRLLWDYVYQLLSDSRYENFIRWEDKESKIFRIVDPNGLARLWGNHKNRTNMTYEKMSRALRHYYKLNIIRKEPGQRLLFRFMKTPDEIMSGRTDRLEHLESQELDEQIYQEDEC

[6] = biological target: T4, FLI1 full-length (UniProt Q01543); experiment: pull-down; settings: Pull-down: 4 C, 30 min, 1 ug poly(dI/dC), 4 mM spermidine, wash in binding buffer 50 mM KCl, 10 mM HEPES pH 7.6, 5 mM MgCl2, 10 mM Tris pH 8, 0.05 mM EDTA, protein translated in vitro, residues 1-452, protein details: FLAG
T4 sequence (looked up): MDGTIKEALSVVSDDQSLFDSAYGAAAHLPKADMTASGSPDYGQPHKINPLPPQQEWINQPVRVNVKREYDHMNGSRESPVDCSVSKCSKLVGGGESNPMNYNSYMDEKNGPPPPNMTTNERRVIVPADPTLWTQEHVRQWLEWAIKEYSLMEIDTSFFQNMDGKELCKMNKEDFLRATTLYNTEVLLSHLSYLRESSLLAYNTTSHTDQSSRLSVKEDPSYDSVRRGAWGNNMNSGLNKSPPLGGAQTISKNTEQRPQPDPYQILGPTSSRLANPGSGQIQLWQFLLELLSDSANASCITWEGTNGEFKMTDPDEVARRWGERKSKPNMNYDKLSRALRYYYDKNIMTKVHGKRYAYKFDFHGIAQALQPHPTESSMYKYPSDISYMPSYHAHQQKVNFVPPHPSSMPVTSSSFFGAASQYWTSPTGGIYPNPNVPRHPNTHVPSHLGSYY

[7] = tested on: JUN; experiment: pull-down; settings: with or without 20 uM hit compounds A-D (no inhibition); Pull-down: 4 C, 30 min, 1 ug poly(dI/dC), 4 mM spermidine; wash in binding buffer 50 mM KCl, 10 mM HEPES pH 7.6, 5 mM MgCl2, 10 mM Tris pH 8, 0.05 mM EDTA; protein translated in vitro; protein details: FLAG

ACCGGAAGTACCGGAAGTACCGGAAGT (double strand) [3x consensus ETS oligonucleotide (SPR, NMR)]
binding result [1]: binds | binding result [2]: binds

ACCGGAAGTACCGGAAGTACCGGAAGT (double strand) [3x consensus ETS oligonucleotide (biotinylated)]
binding result [3]: binds | binding result ([4]; 20 uM hit compounds A-D): binds more weakly | binding result ([4]; no compound): binds | binding result ([5]; 20 uM hit compounds A-D): binds more weakly | binding result ([5]; fragment Fr12 (significantly inhibited)): binds more weakly | binding result ([5]; no compound (DMSO)): binds | binding result ([6]; 20 uM hit compounds A-D): binds more weakly | binding result ([6]; with or without fragments Fr12, Fr18 (no detectable effect)): binds

TGACTCATGAGTCAGTATGAGTCACAATGACTCACCT (double strand) [3x AP-1 oligonucleotide (biotinylated)]
binding result [7]: binds
